The values below come from paper doi:10.1101/2025.11.21.689678 (bioRxiv, 2025).

Chains of the proteins cited; added tags and fusions are not shown.
UniProt Q13263: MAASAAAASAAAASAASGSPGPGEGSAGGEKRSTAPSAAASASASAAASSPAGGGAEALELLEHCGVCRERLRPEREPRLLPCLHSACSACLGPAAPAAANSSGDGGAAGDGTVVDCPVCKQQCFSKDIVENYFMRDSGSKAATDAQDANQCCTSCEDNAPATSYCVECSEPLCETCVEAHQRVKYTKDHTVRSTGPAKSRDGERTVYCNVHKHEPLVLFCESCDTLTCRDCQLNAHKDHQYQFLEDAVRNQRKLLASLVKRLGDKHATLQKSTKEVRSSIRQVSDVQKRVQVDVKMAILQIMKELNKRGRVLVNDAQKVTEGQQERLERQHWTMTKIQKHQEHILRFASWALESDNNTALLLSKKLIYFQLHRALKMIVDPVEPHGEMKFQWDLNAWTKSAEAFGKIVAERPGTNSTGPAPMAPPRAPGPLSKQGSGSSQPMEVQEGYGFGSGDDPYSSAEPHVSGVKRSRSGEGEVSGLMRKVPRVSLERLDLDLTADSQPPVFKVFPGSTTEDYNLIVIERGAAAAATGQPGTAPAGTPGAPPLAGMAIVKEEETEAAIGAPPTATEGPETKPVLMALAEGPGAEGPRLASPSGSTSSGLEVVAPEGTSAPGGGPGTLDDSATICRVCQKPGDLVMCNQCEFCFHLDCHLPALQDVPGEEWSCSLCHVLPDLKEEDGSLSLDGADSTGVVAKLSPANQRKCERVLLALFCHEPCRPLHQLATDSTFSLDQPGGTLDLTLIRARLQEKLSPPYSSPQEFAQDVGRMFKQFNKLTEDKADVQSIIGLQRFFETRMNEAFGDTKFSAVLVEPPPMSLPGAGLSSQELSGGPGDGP

No constants are given. Whether binding was seen depends on the method and setting. Binding seen in cells or lysates may run through a third protein. Here binding means that the protein was enriched with, or labelled near, the bait; the list need not be complete.

In the test the target is TAP-TRIM28 (human) (UniProt Q13263). The test is described as follows: affinity purification with mass spectrometry.

B1: endogenous ALKBH2 (H1299) (protein, UniProt Q6NS38 1-261)
chain: MDRFLVKGAQGGLLRKQEEQEPTGEEPAVLGGDKESTRKRPRREAPGNGGHSAGPSWRHIRAEGLDCSYTVLFGKAEADEIFQELEKEVEYFTGALARVQVFGKWHSVPRKQATYGDAGLTYTFSGLTLSPKPWIPVLERIRDHVSGVTGQTFNFVLINRYKDGCDHIGEHRDDERELAPGSPIASVSFGACRDFVFRHKDSRGKSPSRRVAVVRLPLAHGSLLMMNHPTNTHWYHSLPVRKKVLAPRVNLTFRKILLTKK
In the case of B1, the binding result is listed as “binds”.
